Data source: PubChem BioAssay AID493246 (Drosophila RNAi Screening Center, 2011)
Purpose: 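Identify essential fly genes by loss of cell viability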 (primary screen). Cells: Drosophila Kc and S2R+ cells. Knock-down reagent: long dsRNA against Drosophila genes. Measurement: 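Cell number per well after knock-down, printed as raw plate values; calls were based on per-plate z-scores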. Scale: Kc cell number and S2R+ cell number: higher = more cells remaining. Hit rule: 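Counted as a hit if cell number falls by a z-score of at least 3 within its plate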.
The deposit covers about 21,000 reagents; this is a random part of those that have a named target and a result. Of all reagents, 429 (2%) are marked active. 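Values are raw and not normalised between plates; calls rest on per-plate z-scores that were not deposited.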 Unmarked entries are inactive. A plus sign joins genes that one reagent is predicted to hit. The record does not give: the amount of reagent, the time to read-out.

What is on record for Taf10b + Taf10 [DRSC00793]?
Kc cell number, rep 1: 1.50e6; Kc cell number, rep 2: 1.55e6; S2R+ cell number, rep 1: 1.08e6; S2R+ cell number, rep 2: 1.21e6

With CG13113 [DRSC02211], what was measured?
Kc cell number, rep 1: 1.76e6; Kc cell number, rep 2: 1.94e6; S2R+ cell number, rep 1: 1.36e6; S2R+ cell number, rep 2: 1.54e6

For Cdk7 (Cyclin-dependent kinase 7) [DRSC18451], what was measured?
Kc cell number, rep 1: 1.66e6; Kc cell number, rep 2: 1.69e6; S2R+ cell number, rep 1: 1.12e6; S2R+ cell number, rep 2: 1.22e6

Which result is listed for CG15153 [DRSC02454]?
Kc cell number, rep 1: 1.55e6; Kc cell number, rep 2: 1.64e6; S2R+ cell number, rep 1: 1.24e6; S2R+ cell number, rep 2: 1.39e6

With Mef2 (Myocyte enhancer factor 2) [DRSC07468], what was measured?
Kc cell number, rep 1: 1.44e6; Kc cell number, rep 2: 1.46e6; S2R+ cell number, rep 1: 1.02e6; S2R+ cell number, rep 2: 1.11e6

Laid out differently: results already given
gene knocked down | dsRNA | Kc cell number, rep 1 | Kc cell number, rep 2 | S2R+ cell number, rep 1 | S2R+ cell number, rep 2
CG13113 | DRSC02211 | 1.76e6 | 1.94e6 | 1.36e6 | 1.54e6
Cdk7 (Cyclin-dependent kinase 7) | DRSC18451 | 1.66e6 | 1.69e6 | 1.12e6 | 1.22e6

The results go on:
Which result is listed for SRPK (SR Protein Kinase) [DRSC07090]?
Kc cell number, rep 1: 1.07e6; Kc cell number, rep 2: 1.06e6; S2R+ cell number, rep 1: 8.40e5; S2R+ cell number, rep 2: 6.28e5

What is on record for Cnx14D (Calnexin 14D) [DRSC20214]?
Kc cell number, rep 1: 1.60e6; Kc cell number, rep 2: 1.66e6; S2R+ cell number, rep 1: 1.12e6; S2R+ cell number, rep 2: 1.27e6

What did the screen give for GNBP1 (Gram-negative bacteria binding protein 1) [DRSC11169]?
Kc cell number, rep 1: 1.31e6; Kc cell number, rep 2: 1.40e6; S2R+ cell number, rep 1: 1.35e6; S2R+ cell number, rep 2: 1.42e6

Which result is listed for dlt (discs lost) [DRSC08705]?
Kc cell number, rep 1: 1.76e6; Kc cell number, rep 2: 1.66e6; S2R+ cell number, rep 1: 1.17e6; S2R+ cell number, rep 2: 1.47e6

For IscU (Iron-sulfur cluster assembly enzyme) [DRSC16572], what was measured?
Kc cell number, rep 1: 1.16e6 (active); Kc cell number, rep 2: 1.30e6; S2R+ cell number, rep 1: 6.41e5; S2R+ cell number, rep 2: 7.61e5

For CG7755 [DRSC07040], what was measured?
Kc cell number, rep 1: 1.74e6; Kc cell number, rep 2: 1.83e6; S2R+ cell number, rep 1: 1.12e6; S2R+ cell number, rep 2: 1.30e6

How did the screen score COX2 (retired record) [DRSC21276]?
Kc cell number, rep 1: 1.57e6; Kc cell number, rep 2: 1.60e6; S2R+ cell number, rep 1: 1.18e6; S2R+ cell number, rep 2: 1.27e6
